Laboratory results as given in paper PMC5865150, “Structure and evolution of the Fam20 kinases” (Nature Communications, 2018).
No constants are given. Whether binding was seen depends on the method and setting. Some binding calls cover weakened binding; strength is not graded here. Where a sequence is shown, tags or fusion partners need not be part of it.

Amino acid sequences for entries named in this document (tags omitted). Residues count along the entry.
UniProt Q8IXL6, residues 63-584: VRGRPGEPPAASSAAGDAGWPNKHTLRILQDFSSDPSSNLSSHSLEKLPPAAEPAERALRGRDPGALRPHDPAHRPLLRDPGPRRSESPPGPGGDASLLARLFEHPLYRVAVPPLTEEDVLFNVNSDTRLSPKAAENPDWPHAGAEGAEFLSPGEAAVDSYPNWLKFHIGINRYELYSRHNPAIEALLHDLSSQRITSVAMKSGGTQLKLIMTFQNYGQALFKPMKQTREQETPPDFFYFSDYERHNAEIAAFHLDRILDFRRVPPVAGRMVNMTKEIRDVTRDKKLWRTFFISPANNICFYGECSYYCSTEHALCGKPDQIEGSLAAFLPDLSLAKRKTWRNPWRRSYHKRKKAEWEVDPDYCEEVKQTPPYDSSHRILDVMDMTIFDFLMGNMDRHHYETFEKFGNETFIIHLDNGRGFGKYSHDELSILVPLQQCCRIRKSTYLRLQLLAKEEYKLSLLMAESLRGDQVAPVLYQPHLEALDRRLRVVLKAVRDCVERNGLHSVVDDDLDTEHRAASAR

Target: His6-MBP-Fam20C (human) (UniProt Q8IXL6)
Experiment: pull-down; MBP pull-down on amylose resin; His6-MBP-Fam20C as bait, His6-SUMOstar-Fam20A (WT and mutants) mixed in; SDS-PAGE and Coomassie staining; both purified

B1: His6-SUMOstar-Fam20A (WT) (protein, UniProt Q96MK3 34-541)
chain: QLRPRERPRGCPCTGRASSLARDSAAAASDPGTIVHNFSRTEPRTEPAGGSHSGSSSKLQALFAHPLYNVPEEPPLLGAEDSLLASQEALRYYRRKVARWNRRHKMYREQMNLTSLDPPLQLRLEASWVQFHLGINRHGLYSRSSPVVSKLLQDMRHFPTISADYSQDEKALLGACDCTQIVKPSGVHLKLVLRFSDFGKAMFKPMRQQRDEETPVDFFYFIDFQRHNAEIAAFHLDRILDFRRVPPTVGRIVNVTKEILEVTKNEILQSVFFVSPASNVCFFAKCPYMCKTEYAVCGNPHLLEGSLSAFLPSLNLAPRLSVPNPWIRSYTLAGKEEWEVNPLYCDTVKQIYPYNNSQRLLNVIDMAIFDFLIGNMDRHHYEMFTKFGDDGFLIHLDNARGFGRHSHDEISILSPLSQCCMIKKKTLLHLQLLAQADYRLSDVMRESLLEDQLSPVLTEPHLLALDRRLQTILRTVEGCIVAHGQQSVIVDGPVEQLAPDSGQANLTS
binding: binds
